Chains of the proteins cited; added tags and fusions are not shown.
UniProt P19821, whole entry: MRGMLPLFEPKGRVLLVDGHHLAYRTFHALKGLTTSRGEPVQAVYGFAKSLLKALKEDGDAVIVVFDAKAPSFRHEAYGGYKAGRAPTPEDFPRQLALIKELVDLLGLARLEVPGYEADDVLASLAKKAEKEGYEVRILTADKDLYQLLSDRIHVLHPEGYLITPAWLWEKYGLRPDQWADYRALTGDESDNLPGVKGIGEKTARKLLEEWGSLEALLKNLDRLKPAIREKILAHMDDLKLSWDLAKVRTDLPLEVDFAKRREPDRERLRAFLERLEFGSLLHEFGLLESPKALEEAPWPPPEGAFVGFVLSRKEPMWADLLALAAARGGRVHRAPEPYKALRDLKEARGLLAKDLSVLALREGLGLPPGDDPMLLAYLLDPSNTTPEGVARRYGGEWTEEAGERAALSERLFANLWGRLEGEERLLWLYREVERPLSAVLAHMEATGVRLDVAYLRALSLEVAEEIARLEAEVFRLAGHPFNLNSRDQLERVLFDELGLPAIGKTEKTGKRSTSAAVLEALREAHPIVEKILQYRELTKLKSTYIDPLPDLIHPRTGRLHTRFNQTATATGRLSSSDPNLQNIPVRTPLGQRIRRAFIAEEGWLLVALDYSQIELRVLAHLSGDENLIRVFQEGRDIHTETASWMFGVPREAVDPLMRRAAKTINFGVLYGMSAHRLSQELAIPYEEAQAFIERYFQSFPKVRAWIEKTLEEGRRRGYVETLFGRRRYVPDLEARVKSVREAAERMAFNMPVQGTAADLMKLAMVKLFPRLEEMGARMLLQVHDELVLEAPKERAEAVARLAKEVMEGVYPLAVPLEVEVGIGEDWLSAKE

According to patent US10724083:

Experiments:
Experiment in all cases: inhibition of the protein
[1] = target: Taq DNA polymerase (UniProt P19821); details: purified recombinant protein, protein details: GenScript E00007, single-stranded DNA
[2] = target: T1, Deep Vent DNA polymerase (UniProt Q51334); details: deoxyinosine at n (position 35) [35 (deoxyinosine, parent G)]; inactivated in hairpin extension assay, 80 nM aptamer, reactivated by EndoV; 5 mM MgCl2, 60 or 65 C; purified recombinant protein; protein details: New England Biolabs M0258S; single-stranded DNA; letters built from the parent sequence and the stated change; variant of aptamer SEQ ID NO:5
T1 sequence (looked up, limits assumed): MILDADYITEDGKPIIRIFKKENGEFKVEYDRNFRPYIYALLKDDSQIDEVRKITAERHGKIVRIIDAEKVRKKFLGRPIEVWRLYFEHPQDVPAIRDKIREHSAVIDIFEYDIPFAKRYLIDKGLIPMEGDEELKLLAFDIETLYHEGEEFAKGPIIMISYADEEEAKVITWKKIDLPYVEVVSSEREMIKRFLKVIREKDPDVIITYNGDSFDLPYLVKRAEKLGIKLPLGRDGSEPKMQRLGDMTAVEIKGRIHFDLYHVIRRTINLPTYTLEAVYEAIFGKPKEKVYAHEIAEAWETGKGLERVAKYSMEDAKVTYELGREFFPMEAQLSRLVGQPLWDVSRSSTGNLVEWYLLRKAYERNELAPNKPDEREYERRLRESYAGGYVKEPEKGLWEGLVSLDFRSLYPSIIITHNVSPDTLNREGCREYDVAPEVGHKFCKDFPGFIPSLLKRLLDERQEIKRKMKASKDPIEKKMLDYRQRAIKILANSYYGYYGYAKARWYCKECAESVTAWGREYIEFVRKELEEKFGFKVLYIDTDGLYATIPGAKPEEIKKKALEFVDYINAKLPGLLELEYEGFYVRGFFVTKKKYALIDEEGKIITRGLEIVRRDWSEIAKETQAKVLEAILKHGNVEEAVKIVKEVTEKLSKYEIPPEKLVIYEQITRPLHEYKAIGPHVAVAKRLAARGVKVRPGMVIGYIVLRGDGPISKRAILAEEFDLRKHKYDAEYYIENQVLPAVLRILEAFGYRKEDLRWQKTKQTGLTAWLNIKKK

[3] = tested on: Phusion DNA polymerase; details: deoxyinosine at n (position 35) [35 (deoxyinosine, parent G)]; inactivated in hairpin extension assay, 80 nM aptamer, reactivated by EndoV; 5 mM MgCl2, 60 or 65 C; purified recombinant protein; protein details: New England Biolabs M0530S; single-stranded DNA; letters built from the parent sequence and the stated change; variant of aptamer SEQ ID NO:5
[4] = target: T2, Vent DNA polymerase (UniProt P30317); details: deoxyinosine at n (position 35) [35 (deoxyinosine, parent G)]; inactivated in hairpin extension assay, 80 nM aptamer, reactivated by EndoV; 5 mM MgCl2, 60 or 65 C; purified recombinant protein; protein details: New England Biolabs M0254S; single-stranded DNA; letters built from the parent sequence and the stated change; variant of aptamer SEQ ID NO:5
T2 sequence (looked up, limits assumed): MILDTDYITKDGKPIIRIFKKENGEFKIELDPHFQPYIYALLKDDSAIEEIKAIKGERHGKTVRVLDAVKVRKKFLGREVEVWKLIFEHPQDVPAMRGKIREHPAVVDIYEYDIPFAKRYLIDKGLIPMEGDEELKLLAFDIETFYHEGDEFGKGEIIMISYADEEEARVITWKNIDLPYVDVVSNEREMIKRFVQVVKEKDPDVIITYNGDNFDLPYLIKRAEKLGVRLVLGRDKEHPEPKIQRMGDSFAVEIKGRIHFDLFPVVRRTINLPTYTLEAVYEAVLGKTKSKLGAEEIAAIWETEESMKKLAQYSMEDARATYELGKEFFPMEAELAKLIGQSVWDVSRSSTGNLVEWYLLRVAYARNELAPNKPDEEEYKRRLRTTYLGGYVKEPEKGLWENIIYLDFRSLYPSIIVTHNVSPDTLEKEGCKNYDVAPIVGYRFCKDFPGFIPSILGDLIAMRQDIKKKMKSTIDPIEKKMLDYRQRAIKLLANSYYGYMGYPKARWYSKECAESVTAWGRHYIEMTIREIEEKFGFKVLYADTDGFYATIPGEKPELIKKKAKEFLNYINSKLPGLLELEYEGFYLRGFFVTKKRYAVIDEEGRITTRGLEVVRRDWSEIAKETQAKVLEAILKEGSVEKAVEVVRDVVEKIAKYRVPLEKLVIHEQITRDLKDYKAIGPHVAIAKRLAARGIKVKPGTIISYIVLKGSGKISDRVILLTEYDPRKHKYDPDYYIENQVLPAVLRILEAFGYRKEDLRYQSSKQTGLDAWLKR

[5] = tested on: Q5 DNA polymerase; details: deoxyinosine at n (position 35) [35 (deoxyinosine, parent G)]; inactivated in hairpin extension assay, 80 nM aptamer, reactivated by EndoV; 5 mM MgCl2, 60 or 65 C; purified recombinant protein; protein details: New England Biolabs M0491S; single-stranded DNA; letters built from the parent sequence and the stated change; variant of aptamer SEQ ID NO:5
[6] = target: T3, Bst DNA polymerase large fragment (UniProt P52026); details: deoxyinosine at n (position 35) [35 (deoxyinosine, parent G)]; Bst not inactivated, 80 nM aptamer; 5 mM MgCl2, 60 or 65 C; purified recombinant protein; protein details: New England Biolabs M0275S; single-stranded DNA; letters built from the parent sequence and the stated change; variant of aptamer SEQ ID NO:5
T3 sequence (looked up, limits assumed): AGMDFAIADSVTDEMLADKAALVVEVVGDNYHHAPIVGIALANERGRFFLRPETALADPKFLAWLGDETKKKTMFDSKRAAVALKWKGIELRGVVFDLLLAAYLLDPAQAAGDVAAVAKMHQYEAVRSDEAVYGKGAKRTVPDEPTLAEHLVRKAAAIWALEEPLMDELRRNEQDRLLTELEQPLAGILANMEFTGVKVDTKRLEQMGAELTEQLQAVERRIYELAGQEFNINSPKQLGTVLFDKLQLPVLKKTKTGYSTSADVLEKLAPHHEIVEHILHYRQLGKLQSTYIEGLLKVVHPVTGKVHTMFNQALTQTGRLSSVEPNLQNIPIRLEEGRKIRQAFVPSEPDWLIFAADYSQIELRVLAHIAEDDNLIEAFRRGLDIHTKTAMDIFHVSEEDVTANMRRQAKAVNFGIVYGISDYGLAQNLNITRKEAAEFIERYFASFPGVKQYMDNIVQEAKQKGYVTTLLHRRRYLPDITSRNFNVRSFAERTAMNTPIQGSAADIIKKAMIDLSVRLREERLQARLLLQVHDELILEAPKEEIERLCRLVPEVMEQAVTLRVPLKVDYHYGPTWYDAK

GGACTACTACTACTACTGATTCTTAGCGTTTTCAGTAGTAGTAGTAGTCCT [aptamer SEQ ID NO:20]
functional effect of the aptamer ([1]; deoxyinosine at n (position 24, loop) [24 (deoxyinosine)], inactivates Taq but somewhat less effective, activity completely restored with EndoV, 20 nM, 5 mM MgCl2, 60 C, letters built from the parent sequence and the stated change, variant of aptamer SEQ ID NO:5): less active

GGACTACTACTACTACTGATTCTTAGCGTTTTCAGTAGTAGTAGTAGTCCT [aptamer SEQ ID NO:5]
functional effect of the aptamer ([1]; effectively blocks Taq in real-time PCR, 20 nM aptamer, 5 mM MgCl2, 50 mM KCl, 20 mM Tris pH 8.0, 60 C): active

CCTGATGATGATGATGACATTCTTAGCGTTTTGTCATCATCATCATCAGGT [aptamer SEQ ID NO:13]
functional effect of the aptamer ([1]; deoxyinosine at n (position 10) [10 (deoxyinosine)], ideal inactivation, activity restored with EndoV, 20 nM, 5 mM MgCl2, 60 C, letters built from the parent sequence and the stated change, variant of aptamer SEQ ID NO:11): active

CCTGATGATGATGATGACATTCTTAGCGTTTTGTCATCATCATCATCAGGT [aptamer SEQ ID NO:12]
functional effect of the aptamer ([1]; deoxyinosine at n (position 13) [13 (deoxyinosine)], ideal inactivation, activity restored with EndoV, 20 nM, 5 mM MgCl2, 60 C, letters built from the parent sequence and the stated change, variant of aptamer SEQ ID NO:11): active

GGACTACTACTACTACTGATTCTTAGCGTTTTCAGTAGTAGTAGTAGTCCT [aptamer SEQ ID NO:8]
functional effect of the aptamer ([1]; deoxyinosine at n (positions 18 and 35) [18,35 (deoxyinosine, parent G)], two I-C pairs destabilise duplex, inactivation negatively affected, 20 nM, 5 mM MgCl2, 60 C, letters built from the parent sequence and the stated change, variant of aptamer SEQ ID NO:5): less active

GGACTACTACTACTACTGATTCTTAGCGTTTTCAGTAGTAGTAGTAGTCCT [aptamer SEQ ID NO:17]
functional effect of the aptamer ([1]; deoxyinosine at n (position 26, loop) [26 (deoxyinosine)], ideal inactivation, block completely lost after EndoV cleavage, 20 nM, 5 mM MgCl2, 60 C, letters built from the parent sequence and the stated change, variant of aptamer SEQ ID NO:5): active

GGACTACTACTACTACTGATTCTTAGCGTTTTCAGTAGTAGTAGTAGTCCT [aptamer SEQ ID NO:6]
functional effect of the aptamer ([1]; deoxyinosine at n (position 35) [35 (deoxyinosine, parent G)], ideal inactivation, activity restored with EndoV, 20 nM, 5 mM MgCl2, 60 C, letters built from the parent sequence and the stated change, variant of aptamer SEQ ID NO:5): active
functional effect of the aptamer [2]: active
functional effect of the aptamer [3]: active
functional effect of the aptamer [4]: active
functional effect of the aptamer [5]: active
functional effect of the aptamer [6]: not active

CCTGATGATGATGATGACATTCTTAGCGTTTTGTCATCATCATCATCAGGT [aptamer SEQ ID NO:16]
functional effect of the aptamer ([1]; deoxyinosine at n (positions 7, 10, 13 and 16) [7, 10, 13, 16 (deoxyinosine)], four I-C pairs destabilise duplex, inactivation negatively affected, 20 nM, 5 mM MgCl2, 60 C, letters built from the parent sequence and the stated change, variant of aptamer SEQ ID NO:11): less active

CCTGATGATGATGATGACATTCTTAGCGTTTTGTCATCATCATCATCAGGT [aptamer SEQ ID NO:14]
functional effect of the aptamer ([1]; deoxyinosine at n (position 7) [7 (deoxyinosine)], truncated hairpin after EndoV likely still blocks, 20 nM, 5 mM MgCl2, 60 C, letters built from the parent sequence and the stated change, variant of aptamer SEQ ID NO:11): active

GGACTACTACTACTACTGATTCTTAGCGTTTTCAGTAGTAGTAGTAGTCCT [aptamer SEQ ID NO:9]
functional effect of the aptamer ([1]; deoxyinosine at n (position 38) [38 (deoxyinosine, parent G)], ideal inactivation, activity restored with EndoV, 20 nM, 5 mM MgCl2, 60 C, letters built from the parent sequence and the stated change, variant of aptamer SEQ ID NO:5): active

CCTGATGATGATGATGACATTCTTAGCGTTTTGTCATCATCATCATCAGGT [aptamer SEQ ID NO:11]
functional effect of the aptamer ([1]; effectively blocks Taq in real-time PCR, stem strands exchanged, 20 nM, 5 mM MgCl2, 60 C, variant of aptamer SEQ ID NO:5): active

GGACTACTACTACTACTGATTCTTAGCGTTTTCAGTAGTAGTAGTAGTCCT [aptamer SEQ ID NO:19]
functional effect of the aptamer ([1]; deoxyinosine at n (position 23, loop) [23 (deoxyinosine)], inactivates Taq, activity completely restored with EndoV, 20 nM, 5 mM MgCl2, 60 C, letters built from the parent sequence and the stated change, variant of aptamer SEQ ID NO:5): active

GGACTACTACTACTACTGATTCTTAGCGTTTTCAGTAGTAGTAGTAGTCCT [aptamer SEQ ID NO:18]
functional effect of the aptamer ([1]; deoxyinosine at n (position 28, loop) [28 (deoxyinosine)], very weak inactivation, block completely lost after EndoV cleavage, 20 nM, 5 mM MgCl2, 60 C, letters built from the parent sequence and the stated change, variant of aptamer SEQ ID NO:5): less active

GGACTACTACTACTACTGATTCTTAGCGTTTTCAGTAGTAGTAGTAGTCCT [aptamer SEQ ID NO:7]
functional effect of the aptamer ([1]; deoxyinosine at n (position 18) [18 (deoxyinosine, parent G)], less effective block, inosine too close to loop, 20 nM, 5 mM MgCl2, 60 C, letters built from the parent sequence and the stated change, variant of aptamer SEQ ID NO:5): less active

Construct, isoform or probe ends are uncertain for at least one entry. For some of these results: Negatives hold for the conditions tested. For some of these results: Protein sequences can lack the tags named with them. For some of these results: A weaker result is weaker than the reference pair of the same experiment.
